The list shows only some results of the screen, not a fair sample: it gathers tests that were run many times, whatever their T/C, doses with no T/C, and many T/C values between a quarter and a half above the control. Other doses and runs of a compound stand elsewhere. T/C is the treated group as % of the vehicle group. Some entries give survivors of the animals treated and no T/C: the source holds a T/C of zero for them, seemingly a mark for toxic or unscored doses. Some survivor counts are full or nearly so, which does not show that the dose was tolerated: survival well below the control is almost never listed, so the zero probably covers shortened survival too. Survivors were counted at the toxicity check, usually on the fifth day, unless a day is given; later deaths do not show. Schedule codes are those of the source, taken here to give the interval after Q, in days (D) or hours (H), and the number of doses after X. Some structures stand for samples that the source files as different forms (salt, stereo form or complex); doses refer to the form tested. Some schedule codes hold Z or #, which are not explained here. Where survival is the endpoint, this PubChem deposit counts one and a half times the control or more as active, and values a quarter to a half above the control carry no call in these data; other NCI protocols may use other cut-offs.
System: L1210 leukemia ip in BDF1 mice, survival T/C
Assay: NCI In Vivo Anticancer Drug Screen. Data for tumor model L1210 Leukemia (intraperitoneal) in B6D2F1 (BDF1) mice
Details: T/C endpoint: mean survival time, higher T/C = longer survival
[1] = dose: 150.0 mg/kg/injection, schedule: Q01DX001 (ip), vehicle: carboxymethylcellulose (CMC)
[2] = dose: 400.0 mg/kg/injection, schedule: Q04DX003 (ip), vehicle: Klucel (hydroxypropylcellulose) (HPC)
[3] = dose: 400.0 mg/kg/injection, schedule: Q01DX001 (ip), vehicle: carboxymethylcellulose (CMC)
[4] = dose: 300.0 mg/kg/injection, schedule: Q01DX001 (ip), vehicle: carboxymethylcellulose (CMC)
[5] = dose: 75.0 mg/kg/injection, schedule: Q04DX003 (ip), vehicle: saline with Tween-80
[6] = dose: 100.0 mg/kg/injection, schedule: Q04DX003 (ip), vehicle: saline with Tween-80
[7] = dose: 400.0 mg/kg/injection, schedule: Q04DX003 (ip), vehicle: saline with Tween-80
[8] = dose: 100.0 mg/kg/injection, schedule: Q04DX003 (ip), vehicle: saline
[9] = dose: 200.0 mg/kg/injection, schedule: Q04DX003 (ip), vehicle: saline
[10] = dose: 400.0 mg/kg/injection, schedule: Q04DX003 (ip), vehicle: saline

O=CC(NC(=O)N(CCCl)N=O)C(O)C(O)C(O)CO (stereo not drawn) was tested, and the T/C (dose: 0.9 mg/kg/injection, schedule: Q01DX009 (ip), vehicle: carboxymethylcellulose (CMC)) was 131 % of control, the T/C (dose: 0.9 mg/kg/injection, schedule: Q01DX009 (ip), vehicle: other) was 132 % of control and the T/C (dose: 0.9 mg/kg/injection, schedule: Q01DX009 (ip), vehicle: saline) was 126 % of control. The T/C (dose: 1.3 mg/kg/injection, schedule: Q01DX009 (ip), vehicle: carboxymethylcellulose (CMC)) was 137 % of control, the T/C (dose: 1.3 mg/kg/injection, schedule: Q01DX009 (ip), vehicle: other) was 139 % of control and the T/C (dose: 1.3 mg/kg/injection, schedule: Q01DX009 (ip), vehicle: saline) was 137 % of control. The T/C (dose: 2.0 mg/kg/injection, schedule: Q01DX009 (ip), vehicle: saline) was 135 % of control, the T/C (dose: 3.0 mg/kg/injection, schedule: Q01DX009 (ip), vehicle: saline) was 131 % of control and the T/C (dose: 4.0 mg/kg/injection, schedule: Q01DX001 (ip), vehicle: carboxymethylcellulose (CMC)) was 142 % of control. The T/C (dose: 4.0 mg/kg/injection, schedule: Q01DX001 (ip), vehicle: other) was 138 % of control, the T/C (dose: 4.0 mg/kg/injection, schedule: Q01DX001 (ip), vehicle: saline) was 144 % of control and the T/C (dose: 6.0 mg/kg/injection, schedule: Q01DX001 (ip), vehicle: carboxymethylcellulose (CMC)) was 146 % of control. For the same compound, the T/C (dose: 6.0 mg/kg/injection, schedule: Q01DX001 (ip), vehicle: saline) was 148 % of control, the survivor count (dose: 40.0 mg/kg/injection, schedule: Q01DX001 (ip), vehicle: saline) was 10 of 10 and the survivor count (dose: 67.0 mg/kg/injection, schedule: Q01DX001 (ip), vehicle: carboxymethylcellulose (CMC)) was 5 of 10. For the same compound, the survivor count (dose: 67.0 mg/kg/injection, schedule: Q01DX001 (ip), vehicle: saline) was 9 of 10, the survivor count (dose: 100.0 mg/kg/injection, schedule: Q01DX001 (ip), vehicle: carboxymethylcellulose (CMC)) was 3 of 10 and the survivor count [1] was 1 of 10. For the same compound, the survivor count (dose: 225.0 mg/kg/injection, schedule: Q01DX001 (ip), vehicle: carboxymethylcellulose (CMC)) was 0 of 10.

With Cc1sc([N+](=O)[O-])cc1[N+](=O)[O-] the survivor count (dose: 200.0 mg/kg/injection, schedule: Q01DX009 (ip), vehicle: Klucel (hydroxypropylcellulose) (HPC)) was 2 of 6 and the survivor count [2] was 1 of 6.

OCC(O)C(O)/C=N/Nc1cc(Cl)ccc1Cl (stereo not drawn) was tested, and the survivor count [3] was 1 of 4.

For O=C(O)c1cc(Cl)cc2c1-c1ccc(Cl)cc1C2Br (stereo not drawn), the survivor count (dose: 37.5 mg/kg/injection, schedule: Q01DX009 (ip), vehicle: carboxymethylcellulose (CMC)) was 3 of 6, the survivor count (dose: 75.0 mg/kg/injection, schedule: Q01DX009 (ip), vehicle: carboxymethylcellulose (CMC)) was 4 of 6 and the survivor count [4] was 1 of 6.

CCNC(Cc1ccccc1)c1ccc(OC)cc1 (stereo not drawn) was tested, and the survivor count (dose: 100.0 mg/kg/injection, schedule: Q01DX009 (ip), vehicle: Klucel (hydroxypropylcellulose) (HPC)) was 3 of 6, the survivor count (dose: 200.0 mg/kg/injection, schedule: Q04DX003 (ip), vehicle: Klucel (hydroxypropylcellulose) (HPC)) was 0 of 6 and the survivor count [2] was 0 of 6.

Nc1ncnc2c1ncn2C1OC(CO)C(S)C1O (stereo not drawn) was tested, and the survivor count [3] was 0 of 4.

In the case of CCC(=N\N=C(N)N)/C(C)=N\N=C(N)N, the T/C (dose: 60.0 mg/kg/injection, schedule: Q01DX Z (ip), vehicle: saline) was 125 % of control, the survivor count (dose: 240.0 mg/kg/injection, schedule: Q01DX Z (ip), vehicle: saline) was 0 of 6 and the survivor count (dose: 480.0 mg/kg/injection, schedule: Q01DX Z (ip), vehicle: saline) was 0 of 6.

In the case of O=[N+]([O-])c1ccc([S][Pb]([c]2ccccc2)([c]2ccccc2)[c]2ccccc2)cc1, the survivor count (dose: 400.0 mg/kg/injection, schedule: Q04DX002 (ip), vehicle: Klucel (hydroxypropylcellulose) (HPC)) was 1 of 3.

With CC(=O)OCCN1CCN(CCCN2c3ccccc3Sc3ccc(C(F)(F)F)cc32)CC1 the T/C (dose: 14.5 mg/kg/injection, schedule: Q04DX003 (ip), vehicle: saline with Tween-80) was 131 % of control, the survivor count (dose: 22.0 mg/kg/injection, schedule: Q04DX003 (ip), vehicle: saline sonified) was 3 of 6 and the T/C (dose: 33.0 mg/kg/injection, schedule: Q04DX003 (ip), vehicle: saline with Tween-80) was 145 % of control. The T/C (dose: 33.4 mg/kg/injection, schedule: Q04DX003 (ip), vehicle: saline with Tween-80) was 142 % of control, the survivor count (dose: 50.0 mg/kg/injection, schedule: Q04DX003 (ip), vehicle: saline sonified) was 3 of 6 and the T/C (dose: 50.0 mg/kg/injection, schedule: Q04DX003 (ip), vehicle: saline with Tween-80, evaluated on day 20) was 131 % of control. The T/C (dose: 50.0 mg/kg/injection, schedule: Q04DX003 (ip), vehicle: saline with Tween-80, evaluated on day 30) was 149 % of control, the T/C (dose: 50.0 mg/kg/injection, schedule: Q04DX003 (ip), vehicle: saline) was 129 % of control and the survivor count (dose: 75.0 mg/kg/injection, schedule: Q04DX003 (ip), vehicle: saline sonified) was 4 of 6. The T/C [5] was 131 % of control, the survivor count [5] was 4 of 6 and the survivor count [6] was 6 of 6. The survivor count (dose: 200.0 mg/kg/injection, schedule: Q01DX001 (ip), vehicle: saline) was 2 of 6, the survivor count (dose: 200.0 mg/kg/injection, schedule: Q04DX003 (ip), vehicle: saline with Tween-80) was 6 of 6 and the survivor count (dose: 400.0 mg/kg/injection, schedule: Q01DX001 (ip), vehicle: saline) was 0 of 6. The survivor count [7] was 0 of 6.

In the case of NC(=O)c1c2n(c3ncnc(N)c13)C1OC(CO)C(O)C1S2 (stereo not drawn), the survivor count (dose: 100.0 mg/kg/injection, schedule: Q01DX009 (ip), vehicle: water) was 5 of 5, the survivor count (dose: 200.0 mg/kg/injection, schedule: Q01DX009 (ip), vehicle: water) was 5 of 5 and the survivor count (dose: 400.0 mg/kg/injection, schedule: Q01DX009 (ip), vehicle: water) was 4 of 5.

With O=Nc1c(N=O)c(N=O)c(N=O)c(N=O)c1N=O the survivor count (dose: 16.0 mg/kg/injection, schedule: Q01DX015 (ip), vehicle: carboxymethylcellulose (CMC)) was 3 of 6, the survivor count (dose: 32.0 mg/kg/injection, schedule: Q01DX015 (ip), vehicle: carboxymethylcellulose (CMC)) was 0 of 6 and the survivor count (dose: 64.0 mg/kg/injection, schedule: Q01DX015 (ip), vehicle: carboxymethylcellulose (CMC)) was 0 of 6. For the same compound, the survivor count [8] was 3 of 6, the survivor count [9] was 0 of 6 and the survivor count [10] was 1 of 6. For the same compound, the survivor count (dose: 800.0 mg/kg/injection, schedule: Q01DX001 (ip), vehicle: saline) was 0 of 4 and the survivor count (dose: 1600.0 mg/kg/injection, schedule: Q01DX001 (ip), vehicle: saline) was 0 of 4.

In the case of C[N+]1=C2CCCC2=C(N)CC1, the survivor count [8] was 0 of 6, the survivor count [9] was 0 of 6 and the survivor count [10] was 1 of 6.

In the case of CCN(CC)CCSC(CO)c1ccccc1 (stereo not drawn), the survivor count (dose: 300.0 mg/kg/injection, schedule: Q04DX003 (ip), vehicle: Klucel (hydroxypropylcellulose) (HPC)) was 2 of 6.

For CCOC(=O)c1[nH]c2ccccc2c1CN(CC)CC, the survivor count [1] was 1 of 6 and the survivor count [4] was 2 of 6.

O=c1[nH]c(=O)c2ncsc2[nH]1 was tested, and the survivor count [7] was 0 of 6.

OC1c2ccccc2-c2ccc(N(Cc3ccccc3)Cc3ccccc3)cc21 (stereo not drawn) was tested, and the survivor count [6] was 6 of 6 and the survivor count [7] was 6 of 6.

In the case of CCCCCCCCCCOP(N)(=O)OCCCCCCCCCC, the survivor count (dose: 200.0 mg/kg/injection, schedule: Q04DX003 (ip), vehicle: carboxymethylcellulose (CMC)) was 6 of 6 and the survivor count (dose: 340.0 mg/kg/injection, schedule: Q01DX009 (ip), vehicle: carboxymethylcellulose (CMC)) was 0 of 6.

For [N-]=[N+]=Nc1ccc(C(=O)NCc2cnc(N)nc2N)cc1, the survivor count (dose: 25.0 mg/kg/injection, schedule: Q04DX002 (ip), vehicle: saline with Tween-80) was 3 of 3 and the survivor count (dose: 50.0 mg/kg/injection, schedule: Q04DX002 (ip), vehicle: saline with Tween-80) was 3 of 3.
